Numbering of substitutions follows the chain as printed. No constants are given. Whether binding was seen depends on the method and setting. Binding seen in cells or lysates may run through a third protein. Binding calls can cover weak binding; strength is not graded here. Tags and fused reporters may be left off the sequences shown.
Experiments:
[1] = target: T1, Flag-S6KL (Drosophila S6 kinase like) (Drosophila melanogaster) (UniProt Q9VWQ2); assay: co-IP; S2 cells co-transfected with Flag-S6KL or Flag-S6KL^KD and Myc-Tkv; RIPA lysates precleared, immunoprecipitated with anti-Flag (or anti-Myc; control IgG) on protein G-Sepharose, 3 h at 4°C, five washes with RIPA buffer; western with anti-Flag and anti-Myc
T1 sequence: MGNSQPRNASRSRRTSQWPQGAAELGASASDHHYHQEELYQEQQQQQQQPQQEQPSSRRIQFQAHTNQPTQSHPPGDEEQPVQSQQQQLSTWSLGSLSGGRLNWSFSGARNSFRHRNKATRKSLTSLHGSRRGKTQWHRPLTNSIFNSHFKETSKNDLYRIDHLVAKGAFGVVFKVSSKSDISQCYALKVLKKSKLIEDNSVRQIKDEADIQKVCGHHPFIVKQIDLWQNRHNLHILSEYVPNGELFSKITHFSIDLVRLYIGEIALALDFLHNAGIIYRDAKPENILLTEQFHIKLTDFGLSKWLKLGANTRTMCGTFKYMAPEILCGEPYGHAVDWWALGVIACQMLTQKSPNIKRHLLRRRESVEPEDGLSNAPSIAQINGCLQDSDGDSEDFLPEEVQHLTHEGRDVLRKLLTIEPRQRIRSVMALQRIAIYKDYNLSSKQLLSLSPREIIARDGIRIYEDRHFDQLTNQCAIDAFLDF

[2] = target: T2, Flag-S6KL^K193Q (kinase-dead S6KL) (Drosophila melanogaster) (UniProt Q9VWQ2); assay: as above
T2 sequence: T1 sequence with K193Q

Myc-Tkv (BMP type I receptor thickveins) (Drosophila melanogaster)
binding [1]: binds
binding [2]: binds

From article PMC4351882
